Results are given in words; binding and its absence hold for the method and conditions named. In cells and extracts the contact can be indirect. A result given as binding can be weak or reduced; the word gives no strength. Tags and fused reporters may be left off the sequences shown.

In article PMC12520681 one finds binding data, which are given here for 2 substances.

The target in this test is T1, GFP-tagged full-length CD24 (human) (UniProt P25063).
T1 sequence: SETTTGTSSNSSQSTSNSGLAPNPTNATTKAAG
In words: co-IP; HEK293T cells overexpressing GFP-tagged full-length CD24 and Flag-tagged RCC2 domains; IP with anti-GFP antibody, blot with anti-FLAG antibody.

As for “Flag-tagged RCC2 C-terminal domain (domain or fragment)”, the binding entry was “binds”.
As for “Flag-tagged RCC2 N-terminal domain (domain or fragment)”, the binding result is “binds”.
